Results deposited as PubChem BioAssay AID504764 (Drosophila RNAi Screening Center, 2011).
In all, the deposit lists about 22,000 reagents; this is a random part of those with a known target gene and a result. In the full data, 403 (1.9%) got an active call. 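Unnormalised raw counts per well; ratio z-scores behind the hit calls and whether each hit raises or lowers signal are not deposited.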 Reagents against one gene are numbered here. Names joined by + are all predicted targets of the reagent. Not given: the amount of reagent.

Purpose: 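Genes whose knock-down alters Notch-dependent transcription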 (primary screen)
Cells: Drosophila Kc167 cells
Reagent: long dsRNA against Drosophila genes
Timing: about 5 days (4 days dsRNA, then 24 h after transfection)
Conditions: transfection of constitutively active membrane-tethered Notch lacking the extracellular domain, read 24 h later
Read-out: 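Firefly luciferase from an E(spl)m3 reporter with active Notch, plus control-promoter and uninduced reporter wells for normalisation; unnormalised counts, duplicate wells a and b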
Direction: induced reporter light, run 1, well a and induced reporter light, run 1, well b: higher = more light from the Notch target reporter with active Notch; control promoter light, run 1, well a and control promoter light, run 1, well b: higher = more light from the viral control promoter (cell number, transfection, viability); uninduced reporter light, run 1, well a: higher = more light from the Notch target reporter without active Notch
Active means: 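Hit if the duplicate-averaged log2 ratio of induced to control-promoter light gives a plate-wise z beyond ±2, or induced to uninduced beyond ±1.8; weak-control or discordant-duplicate wells dropped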
Meaning of the calls: active = modifier hit (raised or lowered Notch signal); inactive = not a hit

The first 2 records, to show the layout:
gene knocked down	reagent no.	induced reporter light, run 1, well a	induced reporter light, run 1, well b	control promoter light, run 1, well a	control promoter light, run 1, well b	uninduced reporter light, run 1, well a	Outcome
CG15387 (GeneID 33403)	1	1.43e5	1.73e5	1.35e5	80315	10715	inactive
CG13950 (GeneID 33267)	1	1.36e5	1.14e5	1.32e5	69915	11800	inactive

Main list, repeating the preview:
gene knocked down	reagent no.	induced reporter light, run 1, well a	induced reporter light, run 1, well b	control promoter light, run 1, well a	control promoter light, run 1, well b	uninduced reporter light, run 1, well a	Outcome
CG15387 (GeneID 33403)	1	1.43e5	1.73e5	1.35e5	80315	10715	inactive
CG13950 (GeneID 33267)	1	1.36e5	1.14e5	1.32e5	69915	11800	inactive
drpr (GeneID 38218)	1	1.43e5	2.32e5	3.64e5	3.26e5	10825	inactive
drpr (GeneID 38218)	2	1.48e5	1.29e5	2.66e5	2.45e5	8425	inactive
CG4558 (GeneID 31631)	1	2.63e5	2.91e5	3.22e5	3.17e5	16670	inactive
CG12010 (GeneID 38421)	1	1.14e5	1.35e5	1.83e5	1.91e5	5250	inactive
CG17292 (GeneID 34152)	1	1.18e5	1.23e5	1.31e5	1.29e5	8210	inactive
Miox (GeneID 39391)	1	57600	83820	88435	89035	7340	inactive
mira (GeneID 42379)	1	1.72e5	1.83e5	1.67e5	2.02e5	13105	inactive
Ugt303B2 (GeneID 42776)	1	1.48e5	1.53e5	1.75e5	2.09e5	14355	inactive
CG5446 (GeneID 34655)	1	1.45e5	1.55e5	1.38e5	1.39e5	9915	inactive
Dhfr (GeneID 42003)	1	2.10e5	2.16e5	1.75e5	2.13e5	15245	inactive
Prdm13 (GeneID 38713)	1	1.94e5	1.96e5	2.37e5	2.25e5	10085	inactive
CG13766 (GeneID 33922)	1	2.12e5	1.62e5	1.95e5	1.68e5	11255	inactive
Gug (GeneID 46156)	1	1.15e5	85175	1.10e5	1.01e5	6220	inactive
Ugt316A1 (GeneID 40079)	1	1.30e5	1.27e5	1.38e5	88935	7270	inactive
CG7655 (GeneID 42128)	1	2.12e5	2.16e5	2.20e5	2.52e5	18015	inactive
CG1113 (GeneID 40629)	1	1.02e5	1.13e5	93610	64010	4075	inactive
CG34338 (GeneID 5740687)	1	88510	1.03e5	1.00e5	87035	6820	inactive
CG14380 (GeneID 41621)	1	2.14e5	2.26e5	1.98e5	2.01e5	14770	inactive
CG3198 (GeneID 31602)	1	1.39e5	1.49e5	2.01e5	2.26e5	11070	inactive
Atg9 (GeneID 36821)	1	1.01e5	1.23e5	1.92e5	1.73e5	8915	inactive
Nse4 (GeneID 34434)	1	1.40e5	2.02e5	87480	1.34e5	20230	inactive
spoon (GeneID 31459)	1	2.36e5	2.14e5	2.10e5	2.46e5	15988	inactive
PpY-55A (GeneID 48532)	1	1.18e5	1.07e5	1.26e5	1.26e5	9300	inactive
CG32269 + CG32270	1	1.19e5	1.14e5	2.19e5	1.49e5	4675	inactive
GstE7 (GeneID 37112)	1	98525	1.06e5	1.84e5	2.54e5	10120	inactive
salr (GeneID 34568)	1	1.07e5	1.68e5	65325	1.15e5	17320	inactive
CG16956 (GeneID 34760)	1	1.13e5	1.26e5	1.58e5	1.44e5	10405	inactive
CG8248 (GeneID 35888)	1	1.98e5	1.87e5	1.56e5	1.85e5	17975	inactive
MICU3 (GeneID 42357)	1	54985	62055	76330	61425	8620	inactive
MICU3 (GeneID 42357)	2	1.38e5	1.41e5	1.56e5	2.16e5	16020	inactive
Mpi (GeneID 41192)	1	54285	53115	69645	47095	3370	inactive
ATPCL (GeneID 36760)	1	1.21e5	1.14e5	1.39e5	1.16e5	11185	inactive
CG1662 (GeneID 32296)	1	1.96e5	1.61e5	1.91e5	2.06e5	11915	inactive
Snx17 (GeneID 34354)	1	1.85e5	1.73e5	1.99e5	1.78e5	12950	inactive
CG32668 (GeneID 318147)	1	85565	86445	1.18e5	93045	7040	inactive
gzl (GeneID 40791)	1	1.51e5	1.83e5	1.39e5	1.34e5	11695	inactive
Mst85C (GeneID 41089)	1	1.08e5	94665	96020	95215	7000	inactive
kon (GeneID 35104)	1	2.42e5	2.33e5	1.98e5	2.28e5	19430	inactive
CG15249 (GeneID 31924)	1	1.30e5	1.42e5	2.22e5	2.97e5	9680	inactive
dikar (GeneID 38747)	1	74910	78440	34930	10120	8270	active
CG13566 (GeneID 37813)	1	2.00e5	1.97e5	1.76e5	1.43e5	13575	inactive
rin (GeneID 47998)	1	56770	40390	37115	39035	7650	inactive
cola + swif	1	2.07e5	1.94e5	2.91e5	2.38e5	16240	inactive
Cp7Fb (GeneID 31785)	1	1.44e5	1.67e5	2.65e5	2.81e5	12065	inactive
CG15071 (GeneID 37153)	1	35965	38965	42775	42565	4610	inactive
Hr96 (GeneID 42993)	1	1.52e5	1.48e5	1.98e5	1.94e5	15935	inactive
Femcoat (GeneID 31367)	1	1.33e5	1.63e5	2.14e5	2.78e5	11045	inactive
Rgk2 (GeneID 37132)	1	40665	24255	42360	44625	3865	inactive
